Measured values taken from PubChem BioAssay AID652054 (National Center for Advancing Translational Sciences (NCATS), 2013).
Hit rate of the full screen: of about 360,000 compounds, about 9,100 (2.5%) were called active. Inconclusive results, whose numbers are uncertain, are shown with a selection of clear calls. Rule as the data show it: active = max response below about -50%; inconclusive = no clear call, values can overlap the other calls; inactive = above that. More than one record can exist for a structure, and the calls need not agree.

Protein sequences, listed by entry. Tags and fused reporters are not part of them.
UniProt P35462, whole entry, looked up: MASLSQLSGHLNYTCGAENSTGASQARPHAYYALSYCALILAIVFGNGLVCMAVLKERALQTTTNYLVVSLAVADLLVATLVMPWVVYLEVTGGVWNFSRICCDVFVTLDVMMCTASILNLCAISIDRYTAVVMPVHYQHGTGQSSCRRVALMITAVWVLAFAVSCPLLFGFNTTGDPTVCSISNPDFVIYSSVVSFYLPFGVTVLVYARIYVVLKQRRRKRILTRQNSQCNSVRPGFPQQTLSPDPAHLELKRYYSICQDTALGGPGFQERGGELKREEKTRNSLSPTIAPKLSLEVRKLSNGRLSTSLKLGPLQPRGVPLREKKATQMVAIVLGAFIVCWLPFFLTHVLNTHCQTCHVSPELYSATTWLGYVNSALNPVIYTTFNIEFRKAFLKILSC

Molecular target: D(3) dopamine receptor (Homo sapiens) (UniProt P35462)
Assay: qHTS of D3 Dopamine Receptor Antagonist: qHTS
Details: D3R cells, DiscoveRx beta-arrestin luminescence, antagonist mode; active compounds read low
Method in brief: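 Cells expressing the human receptor were seeded at 1500 cells/well, incubated overnight at 37 degrees C in 5% CO2, then exposed to library compounds with dopamine controls for 90 minutes at 37 degrees C before luminescent detection.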
% is scaled to controls: 0 for no effect and ±100 for the full control effect.

Max response, negative = inhibition, inactive:
N#CC1=C(SCC(=O)c2cc3ccccc3oc2=O)NC(=O)C(C#N)C12CCCC2 (configuration not stated) -1.35%
CCN(CC)CCN(Cc1cc2cc(C)cc(C)c2[nH]c1=O)C(=S)NCc1ccco1 1.97%
O=C1SC(Cc2ccccc2)C(=O)N1c1ccccc1 (configuration not stated) -9%
COc1ccccc1/C=C/C(=O)Nc1cccc(S(=O)(=O)NC2=NCCCCC2)c1 1.85%
CN(c1nc2c(c(=O)n(C)c(=O)n2C)n1CC(=O)c1ccccc1)C1CCCCC1 19.6%
CC(=NNC(=S)N1CCN(c2ccccn2)CC1)c1nccs1 -20.9%
CCc1cc2c(=O)c(-c3cnn(-c4ccccc4)c3)c(C)oc2cc1OCC(=O)Nc1cccc(C)c1 -7.62%
Cc1cc(C)cc(-n2c(C)c3c(C)nnc(C)c3c2C)c1 -23.1%
O=C(N/N=C/c1ccc([N+](=O)[O-])s1)C(O)c1ccccc1 (configuration not stated) -12.3%
CC(C)(C)C1CCN2CCC[C@](c3ccccc3)(C1)[C@@]21CO1 (some centres not stated) 3.97%
COc1ccc(NC(=O)CSCC(=O)Nc2ccc(S(=O)(=O)N3CCCC3)cc2)cc1 4.35%
Cc1cnc(NC(=O)CSc2nc3ccccc3c(=O)[nH]2)s1 3.3%
O=C1OC(N2C(=O)CC[C@H]2C(=O)Nc2cccc(F)c2)c2ccccc21 (some centres not stated) -10.3%
COc1ccc2cc(C#N)c(N3CCN(Cc4nnnn4CCC(C)C)CC3)nc2c1 22.8%
CCCN(CCC)S(=O)(=O)c1cccc(-c2csc(C)n2)c1 -9.52%
O=[N+]([O-])c1ccc(Cl)cc1NCc1cccnc1 7.68%
O=C(Cc1ccccc1)Nc1ccc(NC(=O)c2ccco2)cc1 -6.42%
COc1ccc(-c2cc(C(F)(F)F)nc(SCC(=O)Nc3cc(C)on3)n2)cc1OC 0.119%
CCCNC(=O)Cn1c(=O)cnc2ccccc21 2.69%
CC1(C(=O)Nc2ccccc2)CCN1C(=O)C1(c2ccccc2)CC1 (configuration not stated) 0%
COc1ccc(/C=C2\COc3ccccc3C2=O)c(OC)c1 7.1%
Cc1ccccc1CSc1nnc(-c2cccs2)n1Cc1ccco1 26%
O=S(=O)(NCc1ccccc1Cl)c1ccc(-n2cccn2)cc1 0%
COC(=O)C1=C(C)N(c2ccccc2)/C(=C/c2cccs2)C1=O 8%

Reprinted at random: 4 compounds from above
Max response, negative = inhibition, inactive:
N#CC1=C(SCC(=O)c2cc3ccccc3oc2=O)NC(=O)C(C#N)C12CCCC2 (configuration not stated) -1.35%
COc1ccc2cc(C#N)c(N3CCN(Cc4nnnn4CCC(C)C)CC3)nc2c1 22.8%
Cc1ccccc1CSc1nnc(-c2cccs2)n1Cc1ccco1 26%
CC(=NNC(=S)N1CCN(c2ccccn2)CC1)c1nccs1 -20.9%

Following part.

Max response, negative = inhibition, inconclusive:
COC(=O)/C=C/c1ccc2c(c1)S(=O)(=O)N(Cc1ccc(OC)cc1)[C@H]2CC(=O)OC -32.6%
CC(C)C1COC(c2cccc3ccccc23)=N1 (configuration not stated) -30.1%
CCOc1ccccc1NC(=O)Cn1nnc(C(=O)NCc2ccco2)c1N -42.5%
Cc1cc(C)c(C)c(OCCOCCN2CCOCC2)c1 -41.1%
CC(C)c1ccc(S(=O)(=O)N2CCN(C(=O)c3cc([N+](=O)[O-])ccc3N3CCOCC3)CC2)cc1 -30.4%
NNc1ncnc2scc(-c3ccc(Cl)cc3)c12 -31.7%
COc1cc(C(Nc2ccccn2)c2ccc3ccc(C)nc3c2O)cc(OC)c1O (configuration not stated) -46%
Cc1cc2nsnc2c(S(=O)(=O)NCC(=O)O)c1C -31.4%
COc1ccccc1C1CCN(c2ccc(CO)cc2[N+](=O)[O-])CC1 -35.4%
C=C(C(=O)c1ccccc1)C(C)C(=C)C(=O)c1ccccc1 -39.6%
CC1CN(S(=O)(=O)c2cccc(C(=O)Nc3ccccc3N3CCCC3)c2)CC(C)O1 (configuration not stated) -45.1%
COc1ccc(N=Cc2sc(O)c3ccccc23)cc1 -34.7%
CCCCOc1ccccc1C(=O)NCCCCCC(=O)O -41.2%
CC(=O)Nc1nonc1NC(=O)c1ccc(F)cc1 -42.7%
CS(=O)(=O)c1ccc(C(=O)OCC(=O)NC(=O)C2CCCCC2)cc1[N+](=O)[O-] -44.1%
COc1ccccc1CN1CCN(Cc2nc(-c3cccs3)no2)CC1 -37.3%
Cc1cc(C(=O)c2ccc(Cl)cc2)c(NC(=O)CCl)s1 -32.3%
Cc1ccc(Cn2c(C)nc3c(c2=O)c2nc4ccccc4nc2n3Cc2ccco2)cc1 -47.3%
O=C(NCc1cccc(F)c1)c1ccc2nc(N3CCOCC3)sc2c1 -30%
COc1ccc2c(c1)c(C(=O)CNc1nc(C)cs1)c(C)n2C -46.1%
C=C(C)Cn1c(SCCCO)nc2c1c(=O)[nH]c(=O)n2C -39.6%
CCOC(=O)c1c(C)n(C)c2ccc(OCC(O)CN3CCCCCC3)cc12 (configuration not stated) -37.4%
CC(C)C[C@@H](CSc1ccc(Br)cc1)N1CCN(CCc2ccccc2)CCC1=O -49.8%
Cc1cn([C@H]2C[C@H](O)[C@@H](/C=C/C(=O)NCCC(c3ccccc3)c3ccccc3)O2)c(=O)[nH]c1=O -34%
CC(C)N(c1ccccc1)c1ncnc(NCCC(=O)O)c1[N+](=O)[O-] -31.2%
CC1CCCN(CCSc2ccc(Cl)cc2)C1 (configuration not stated) -37.1%
CCn1nc(NC(=O)C2CCCO2)c2cc3cc(C)ccc3nc21 (configuration not stated) -33%
O=C(CN1CCC(O)(c2ccccc2F)CC1)NCCc1c[nH]c2ccccc12 -46.4%
OC1CCCN(Cc2ccc3ccc4cccc5ccc2c3c45)C1 (configuration not stated) -31%
Nn1c(SCc2nc3ccccc3[nH]2)nnc1C1CCCCC1 -31.4%
CC(=O)/C(=N\Nc1ccc(Cl)cc1Cl)Sc1nnc(-c2ccccc2)n1-c1ccccc1 -31.8%
O=C(NC(=S)Nc1cccc(O)c1)c1ccco1 -38.5%
COC(=O)C1NN=C(C(=O)c2ccccc2)C1c1ccccc1 (configuration not stated) -36.9%
c1ccc(C2[C@H]3CN(Cc4cccnc4)[C@H](c4ccccc4)C34CC2(c2cccnc2)C4)cc1 (some centres not stated) -30.8%
NNc1nc2c(Cl)c(Cl)ccc2s1 -43.9%
OCCCN1CCN(CCOc2ccccc2-c2ccccc2)CC1 -30.6%
CCC(=O)N(CCCN(C)C)c1nc(-c2cc(OC)ccc2OC)cs1 -36.1%
Cc1ccn2c(NC3CCCCC3)c(C)nc2c1 -37.8%
CCOc1ccccc1C1NC(=O)NC(C)=C1C(=O)OC1CCCC1C (configuration not stated) -34.3%
Cc1ccc([C@H]2N[C@]3(CCCN(Cc4cccn4C)C3=O)[C@H]3C(=O)N(C)C(=O)[C@@H]23)cc1 -31.3%
Cc1cc(C(=O)NNC(=S)Nc2ccccc2C)cs1 -45.3%

Max response, negative = inhibition, active:
Cc1sc2nc(CSc3ccccc3)nc(N3CCN(C)CC3)c2c1C -93.3%
CC(C)C[C@@H](CSc1ccccc1)N1CCN(CCc2ccccc2)CCC1=O -56.2%
COc1ccc(CN2C3CCCC2CC(NC(=O)c2cccc(F)c2)C3)cc1 (configuration not stated) -88.5%
CC1Nc2ncnc(N3CCc4ccccc4C3)c2N(Cc2ccc(Br)cc2)C1=O (configuration not stated) -55.4%
COc1ccc(OC)c(/C(O)=C/C(=O)C(=O)Nc2cc(C)cc(C)c2)c1 -86.3%
CSCCC(c1nnnn1-c1c(C)cccc1C)N1CCN(C/C=C/c2ccccc2)CC1 (configuration not stated) -95.1%
CN1CCN(c2ncnc3c2c(-c2ccccc2)cn3-c2ccc(F)cc2)CC1 -63.3%
Cc1ccc(C)c(NC(=S)NC(NC(=O)Cc2cccc3ccccc23)C(Cl)(Cl)Cl)c1 (configuration not stated) -50.3%
Cn1nnc(NC(=S)NC(=O)c2cc(Cl)ccc2Cl)n1 -70%
Cc1c(C(=O)O)c(O)cc2c1C(=O)c1c(O)c([C@@H]3O[C@H](CO)[C@@H](O)[C@H](O)[C@H]3O)c(O)c(O)c1C2=O -83.8%
CCCCCC(=O)Nc1cccc(C2=NOC3(C2)C[C@@H](C(N)=O)N(C(=O)Cc2ccc([N+](=O)[O-])cc2)C3)c1 (some centres not stated) -55.9%
CN1CCN(c2ccc(CNC(=O)c3cccc4c(-c5ccc(F)c(F)c5)coc34)cc2)CC1 -83.1%
CCC[C@@H](CN1CCC[C@H]1CN1C(N)=NC[C@@H]1Cc1ccccc1)N1C[C@@H]([C@H](C)CC)N(CCCC2CCCC2)C1=N -97.1%
CC(=O)Nc1ccc2c(c1)Cc1cc(N3C(=O)C=CC3=O)ccc1-2 -64.1%
Cc1ccc2ccc(C(Nc3cccc(C(F)(F)F)c3)c3cccnc3)c(O)c2n1 (configuration not stated) -127%
CCCCOC(=O)CSc1nnc(-c2ccc(Cl)cc2Cl)o1 -51.8%
COc1cc(NS(=O)(=O)c2cccc3nsnc23)c(C(=O)O)cc1OC -83.1%
COc1ccc(CN2CCC(C(=O)c3ccc(Cl)cc3)CC2)cc1 -87.8%
COc1ccccc1N1CCN(CCCCOc2ccc(C)cc2C)CC1 -86.4%
Cc1ccc(CN2CCSc3ccc(C(=O)NC4CCN(Cc5ccccc5)CC4)cc32)cc1 -82.5%
O=C(O)COc1ccc(/C=N/Nc2nc(Nc3ccccc3)nc(N3CCCCC3)n2)cc1 -50.4%
O=C(Cc1csc(Nc2nc(=S)[nH]c3ccccc23)n1)NCCCN1CCN(c2cccc(Cl)c2)CC1 -83.7%

3 entries already listed, ordered by formula weight, rising:
Max response, negative = inhibition, active:
Cc1sc2nc(CSc3ccccc3)nc(N3CCN(C)CC3)c2c1C -93.3%
Cc1ccc(CN2CCSc3ccc(C(=O)NC4CCN(Cc5ccccc5)CC4)cc32)cc1 -82.5%
CCCCCC(=O)Nc1cccc(C2=NOC3(C2)C[C@@H](C(N)=O)N(C(=O)Cc2ccc([N+](=O)[O-])cc2)C3)c1 (some centres not stated) -55.9%
